Experimental data: patent US20220339270A1
Results are given in words; binding and its absence hold for the method and conditions named. Some binding calls cover weakened binding; strength is not graded here. For some assays here: Sequences can lack the tags named with a protein.

Protein sequences, listed by entry. Tags and fused reporters are not part of them. Lines headed by an entry give the natural chain unless they say otherwise; changes in a name come on top.
UniProt P10636: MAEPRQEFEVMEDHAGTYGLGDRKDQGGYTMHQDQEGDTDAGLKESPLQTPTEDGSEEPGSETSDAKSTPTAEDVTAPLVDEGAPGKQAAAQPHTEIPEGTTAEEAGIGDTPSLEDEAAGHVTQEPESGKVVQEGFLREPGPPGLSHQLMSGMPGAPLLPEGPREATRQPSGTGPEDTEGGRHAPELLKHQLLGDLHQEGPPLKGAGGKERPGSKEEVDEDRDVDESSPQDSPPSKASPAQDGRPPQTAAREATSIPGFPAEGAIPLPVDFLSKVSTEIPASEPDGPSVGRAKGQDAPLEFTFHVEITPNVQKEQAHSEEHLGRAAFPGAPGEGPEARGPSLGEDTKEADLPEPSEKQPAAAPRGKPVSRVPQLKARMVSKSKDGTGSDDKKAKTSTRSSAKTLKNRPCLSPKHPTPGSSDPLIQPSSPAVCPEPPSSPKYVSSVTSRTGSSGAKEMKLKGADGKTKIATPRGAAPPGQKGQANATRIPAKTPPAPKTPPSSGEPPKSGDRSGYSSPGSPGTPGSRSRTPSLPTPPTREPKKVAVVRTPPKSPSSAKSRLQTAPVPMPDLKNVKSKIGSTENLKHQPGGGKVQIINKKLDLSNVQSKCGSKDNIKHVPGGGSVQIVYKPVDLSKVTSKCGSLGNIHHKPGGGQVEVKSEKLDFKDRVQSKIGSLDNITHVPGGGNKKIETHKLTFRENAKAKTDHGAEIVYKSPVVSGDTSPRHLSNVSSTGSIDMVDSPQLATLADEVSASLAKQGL

B1: IPN002 scFv-HA expressed from TAU_ITR150 (CAG, LH, G4S) (scFv)
scFv: DVLMTQTPLSLPVSLGDQASISCKSSQSIVHSNGNTYLEWYLQKPGQSPKLLVYKVSNRFSGVPDRFSGSGSGTDFTLKISRVEAEDLGTYYCFQGSLVPWAFGGGTKLEIKGGGGSEVHLVESGGALVKPGGSLKLSCAASGFSFSKYGMSWVRQTPDKRLEWVATISSSGSRTYYPDSVKGQFTISRDNAKNTLYLQMSSLKSEDTAMYYCSISWDGAMDYWGQGTSVTVSS
B2: IPN002 scFv-HA expressed from TAU_ITR139 (CAG, HL, (G4S)3) (scFv)
scFv: EVHLVESGGALVKPGGSLKLSCAASGFSFSKYGMSWVRQTPDKRLEWVATISSSGSRTYYPDSVKGQFTISRDNAKNTLYLQMSSLKSEDTAMYYCSISWDGAMDYWGQGTSVTVSSGGGGSGGGGSGGGGSDVLMTQTPLSLPVSLGDQASISCKSSQSIVHSNGNTYLEWYLQKPGQSPKLLVYKVSNRFSGVPDRFSGSGSGTDFTLKISRVEAEDLGTYYCFQGSLVPWAFGGGTKLEIK
B3: IPN002 scFv-HA expressed from TAU_ITR151 (CAG, LH, (G4S)2) (scFv)
scFv: DVLMTQTPLSLPVSLGDQASISCKSSQSIVHSNGNTYLEWYLQKPGQSPKLLVYKVSNRFSGVPDRFSGSGSGTDFTLKISRVEAEDLGTYYCFQGSLVPWAFGGGTKLEIKGGGGSGGGGSEVHLVESGGALVKPGGSLKLSCAASGFSFSKYGMSWVRQTPDKRLEWVATISSSGSRTYYPDSVKGQFTISRDNAKNTLYLQMSSLKSEDTAMYYCSISWDGAMDYWGQGTSVTVSS
B4: IPN002 scFv-HA expressed from TAU_ITR154 (CAG, LH, (G4S)5) (scFv)
scFv: DVLMTQTPLSLPVSLGDQASISCKSSQSIVHSNGNTYLEWYLQKPGQSPKLLVYKVSNRFSGVPDRFSGSGSGTDFTLKISRVEAEDLGTYYCFQGSLVPWAFGGGTKLEIKGGGGSGGGGSGGGGSGGGGSGGGGSEVHLVESGGALVKPGGSLKLSCAASGFSFSKYGMSWVRQTPDKRLEWVATISSSGSRTYYPDSVKGQFTISRDNAKNTLYLQMSSLKSEDTAMYYCSISWDGAMDYWGQGTSVTVSS
B5: IPN002 scFv-HA expressed from TAU_ITR155 (CAG, LH, (G4S)6) (scFv)
scFv: DVLMTQTPLSLPVSLGDQASISCKSSQSIVHSNGNTYLEWYLQKPGQSPKLLVYKVSNRFSGVPDRFSGSGSGTDFTLKISRVEAEDLGTYYCFQGSLVPWAFGGGTKLEIKGGGGSGGGGSGGGGSGGGGSGGGGSGGGGSEVHLVESGGALVKPGGSLKLSCAASGFSFSKYGMSWVRQTPDKRLEWVATISSSGSRTYYPDSVKGQFTISRDNAKNTLYLQMSSLKSEDTAMYYCSISWDGAMDYWGQGTSVTVSS
B6: IPN002 scFv-HA expressed from TAU_ITR152 (CAG, LH, (G4S)3) (scFv)
scFv: DVLMTQTPLSLPVSLGDQASISCKSSQSIVHSNGNTYLEWYLQKPGQSPKLLVYKVSNRFSGVPDRFSGSGSGTDFTLKISRVEAEDLGTYYCFQGSLVPWAFGGGTKLEIKGGGGSGGGGSGGGGSEVHLVESGGALVKPGGSLKLSCAASGFSFSKYGMSWVRQTPDKRLEWVATISSSGSRTYYPDSVKGQFTISRDNAKNTLYLQMSSLKSEDTAMYYCSISWDGAMDYWGQGTSVTVSS
B7: IPN002 scFv-HA expressed from TAU_ITR142 (CAG, HL, (G4S)6) (scFv)
scFv: EVHLVESGGALVKPGGSLKLSCAASGFSFSKYGMSWVRQTPDKRLEWVATISSSGSRTYYPDSVKGQFTISRDNAKNTLYLQMSSLKSEDTAMYYCSISWDGAMDYWGQGTSVTVSSGGGGSGGGGSGGGGSGGGGSGGGGSGGGGSDVLMTQTPLSLPVSLGDQASISCKSSQSIVHSNGNTYLEWYLQKPGQSPKLLVYKVSNRFSGVPDRFSGSGSGTDFTLKISRVEAEDLGTYYCFQGSLVPWAFGGGTKLEIK
B8: IPN002 scFv-HA expressed from TAU_ITR153 (CAG, LH, (G4S)4) (scFv)
scFv: DVLMTQTPLSLPVSLGDQASISCKSSQSIVHSNGNTYLEWYLQKPGQSPKLLVYKVSNRFSGVPDRFSGSGSGTDFTLKISRVEAEDLGTYYCFQGSLVPWAFGGGTKLEIKGGGGSGGGGSGGGGSGGGGSEVHLVESGGALVKPGGSLKLSCAASGFSFSKYGMSWVRQTPDKRLEWVATISSSGSRTYYPDSVKGQFTISRDNAKNTLYLQMSSLKSEDTAMYYCSISWDGAMDYWGQGTSVTVSS
B9: IPN002 scFv-HA expressed from TAU_ITR140 (CAG, HL, (G4S)4) (scFv)
scFv: EVHLVESGGALVKPGGSLKLSCAASGFSFSKYGMSWVRQTPDKRLEWVATISSSGSRTYYPDSVKGQFTISRDNAKNTLYLQMSSLKSEDTAMYYCSISWDGAMDYWGQGTSVTVSSGGGGSGGGGSGGGGSGGGGSDVLMTQTPLSLPVSLGDQASISCKSSQSIVHSNGNTYLEWYLQKPGQSPKLLVYKVSNRFSGVPDRFSGSGSGTDFTLKISRVEAEDLGTYYCFQGSLVPWAFGGGTKLEIK
B10: IPN002 scFv-HA expressed from TAU_ITR143 (CAG, HL, (G4S)8) (scFv)
scFv: EVHLVESGGALVKPGGSLKLSCAASGFSFSKYGMSWVRQTPDKRLEWVATISSSGSRTYYPDSVKGQFTISRDNAKNTLYLQMSSLKSEDTAMYYCSISWDGAMDYWGQGTSVTVSSGGGGSGGGGSGGGGSGGGGSGGGGSGGGGSGGGGSGGGGSDVLMTQTPLSLPVSLGDQASISCKSSQSIVHSNGNTYLEWYLQKPGQSPKLLVYKVSNRFSGVPDRFSGSGSGTDFTLKISRVEAEDLGTYYCFQGSLVPWAFGGGTKLEIK
B11: IPN002 scFv-HA expressed from TAU_ITR141 (CAG, HL, (G4S)5) (scFv)
scFv: EVHLVESGGALVKPGGSLKLSCAASGFSFSKYGMSWVRQTPDKRLEWVATISSSGSRTYYPDSVKGQFTISRDNAKNTLYLQMSSLKSEDTAMYYCSISWDGAMDYWGQGTSVTVSSGGGGSGGGGSGGGGSGGGGSGGGGSDVLMTQTPLSLPVSLGDQASISCKSSQSIVHSNGNTYLEWYLQKPGQSPKLLVYKVSNRFSGVPDRFSGSGSGTDFTLKISRVEAEDLGTYYCFQGSLVPWAFGGGTKLEIK
B12: IPN002 scFv-HA expressed from TAU_ITR137 (CAG, HL, G4S) (scFv)
scFv: EVHLVESGGALVKPGGSLKLSCAASGFSFSKYGMSWVRQTPDKRLEWVATISSSGSRTYYPDSVKGQFTISRDNAKNTLYLQMSSLKSEDTAMYYCSISWDGAMDYWGQGTSVTVSSGGGGSDVLMTQTPLSLPVSLGDQASISCKSSQSIVHSNGNTYLEWYLQKPGQSPKLLVYKVSNRFSGVPDRFSGSGSGTDFTLKISRVEAEDLGTYYCFQGSLVPWAFGGGTKLEIK
B13: IPN002 antibody expressed from CAG-IPN002-HF.T2AL (TAU_ITR1) (antibody, V domains shown)
VH: EVHLVESGGALVKPGGSLKLSCAASGFSFSKYGMSWVRQTPDKRLEWVATISSSGSRTYYPDSVKGQFTISRDNAKNTLYLQMSSLKSEDTAMYYCSISWDGAMDYWGQGTSVTVSS
VL: DVLMTQTPLSLPVSLGDQASISCKSSQSIVHSNGNTYLEWYLQKPGQSPKLLVYKVSNRFSGVPDRFSGSGSGTDFTLKISRVEAEDLGTYYCFQGSLVPWAFGGGTKLEIK
B14: IPN002 antibody expressed from CAG-IPN002-HF.F2AL (TAU_ITR2) (antibody, V domains shown)
VH: EVHLVESGGALVKPGGSLKLSCAASGFSFSKYGMSWVRQTPDKRLEWVATISSSGSRTYYPDSVKGQFTISRDNAKNTLYLQMSSLKSEDTAMYYCSISWDGAMDYWGQGTSVTVSS
VL: DVLMTQTPLSLPVSLGDQASISCKSSQSIVHSNGNTYLEWYLQKPGQSPKLLVYKVSNRFSGVPDRFSGSGSGTDFTLKISRVEAEDLGTYYCFQGSLVPWAFGGGTKLEIK

target: extracellular tau in the form of paired helical filaments (ePHF) (UniProt P10636); test: PHF tau ELISA, 293 cell supernatant

binding, binds:
B1, B2, B3, B4, B5, B6, B7, B8, B9, B10, B11, B12

target: phospho-tau (antigen of the Phospho-tau ELISA of Example 8) (UniProt P10636); test: Phospho-tau ELISA, ExpiCHO supernatant

binding, binds:
B13, B14
